Laboratory results published in paper PMC8449060, “A fully reversible 25-hydroxy steroid kinase involved in oxygen-independent cholesterol side-chain oxidation” (The Journal of Biological Chemistry, 2021).
Results are given in words; binding and its absence hold for the method and conditions named. Where a sequence is shown, tags or fusion partners need not be part of it.

Biological target: 25-hydroxy-steroid kinase (25-HSK) from Sterolibacterium denitrificans, recombinant with C-terminal Strep-tag (Sterolibacterium denitrificans)
Experiment: SEC; gel filtration of recombinant 25-HSK after Strep-Tactin enrichment; native molecular mass 45 ± 5 kDa against 43.3 kDa deduced from the sequence; column and buffer of this run not told; both purified

B1: 25-hydroxy-steroid kinase (25-HSK) from Sterolibacterium denitrificans, recombinant with C-terminal Strep-tag (enzyme, UniProt A0A7Z7HU23 1-379)
chain: MSDTPDLTQVKTSTRDLAVIQERLTAWMAKTLGPGSEPRLSDVRNPGSAGMSSETLLFEMSWKENGVQKTGSFVGRLPPAEDAFPIFPKYDFPLQVGVMRLVEQRSQVPVPKVLWDEPGSEALGMPFFIMARASGEPLPDLPPYPYGGWLAEATPEEQQRLQNSSVAMIAGIHGVKASAGEVAFLQPKRQDGSLMRRIVDDWKDYYEWAREGLDVPLVNEMAAWLEAHWPANDGGNEGVICWGDARPGNILWENFEPTAVLDWEMATFGPREMDVAWLIFFHKYFQYIAMTLGFPEAPMAGYMKRADIIAEYERLSGVKLQNMDWFLGFCVLRMAMFDVRISQRQLRFGERQPEEDHNNYLFTREIIRKILRGEDPWDF
binding: no binding
